# Data from the supplement of paper PMC11732987, “Enantioselective OTUD7B fragment discovery through chemoproteomics screening and high-throughput optimisation” (Communications Chemistry, 2025).
# Amino acid sequences for entries named in this document (tags omitted). A change or cut given only in a name is not applied to a line headed by its entry. Residues count along the entry.
# UniProt Q12983, whole entry, looked up: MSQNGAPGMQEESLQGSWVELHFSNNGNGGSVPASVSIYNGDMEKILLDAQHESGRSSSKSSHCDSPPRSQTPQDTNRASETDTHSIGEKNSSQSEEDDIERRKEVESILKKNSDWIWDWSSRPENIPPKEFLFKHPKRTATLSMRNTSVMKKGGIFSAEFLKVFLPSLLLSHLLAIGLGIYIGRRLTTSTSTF
# UniProt Q96RR4: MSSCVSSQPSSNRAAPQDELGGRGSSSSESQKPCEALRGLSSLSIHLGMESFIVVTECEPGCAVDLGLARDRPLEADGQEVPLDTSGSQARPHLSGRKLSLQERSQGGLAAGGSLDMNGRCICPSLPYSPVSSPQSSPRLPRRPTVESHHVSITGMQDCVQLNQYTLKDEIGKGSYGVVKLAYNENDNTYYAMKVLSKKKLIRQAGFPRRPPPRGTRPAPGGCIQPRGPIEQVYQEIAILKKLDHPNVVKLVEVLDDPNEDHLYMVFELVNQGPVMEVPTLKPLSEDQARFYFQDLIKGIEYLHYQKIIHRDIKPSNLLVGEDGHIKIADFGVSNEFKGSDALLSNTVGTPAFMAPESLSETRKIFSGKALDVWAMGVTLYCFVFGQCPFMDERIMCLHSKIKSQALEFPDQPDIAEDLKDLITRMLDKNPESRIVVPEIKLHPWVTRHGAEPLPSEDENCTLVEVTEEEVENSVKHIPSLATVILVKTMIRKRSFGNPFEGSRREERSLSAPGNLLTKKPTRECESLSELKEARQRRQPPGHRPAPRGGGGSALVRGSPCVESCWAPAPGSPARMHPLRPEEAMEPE
# UniProt P35520: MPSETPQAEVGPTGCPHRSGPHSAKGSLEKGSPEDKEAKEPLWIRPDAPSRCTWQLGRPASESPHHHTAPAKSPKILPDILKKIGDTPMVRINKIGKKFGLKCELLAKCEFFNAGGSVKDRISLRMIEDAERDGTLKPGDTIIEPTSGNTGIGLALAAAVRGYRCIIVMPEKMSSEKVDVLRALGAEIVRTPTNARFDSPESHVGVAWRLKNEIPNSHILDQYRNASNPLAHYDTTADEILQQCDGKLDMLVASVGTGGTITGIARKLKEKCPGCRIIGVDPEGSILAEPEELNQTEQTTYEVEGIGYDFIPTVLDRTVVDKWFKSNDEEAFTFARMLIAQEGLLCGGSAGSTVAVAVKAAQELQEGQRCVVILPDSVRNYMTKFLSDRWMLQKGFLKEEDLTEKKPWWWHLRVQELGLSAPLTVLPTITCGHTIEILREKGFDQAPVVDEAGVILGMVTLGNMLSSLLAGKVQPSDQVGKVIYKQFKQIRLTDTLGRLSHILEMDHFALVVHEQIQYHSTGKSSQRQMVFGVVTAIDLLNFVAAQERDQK
# UniProt Q9Y6J0: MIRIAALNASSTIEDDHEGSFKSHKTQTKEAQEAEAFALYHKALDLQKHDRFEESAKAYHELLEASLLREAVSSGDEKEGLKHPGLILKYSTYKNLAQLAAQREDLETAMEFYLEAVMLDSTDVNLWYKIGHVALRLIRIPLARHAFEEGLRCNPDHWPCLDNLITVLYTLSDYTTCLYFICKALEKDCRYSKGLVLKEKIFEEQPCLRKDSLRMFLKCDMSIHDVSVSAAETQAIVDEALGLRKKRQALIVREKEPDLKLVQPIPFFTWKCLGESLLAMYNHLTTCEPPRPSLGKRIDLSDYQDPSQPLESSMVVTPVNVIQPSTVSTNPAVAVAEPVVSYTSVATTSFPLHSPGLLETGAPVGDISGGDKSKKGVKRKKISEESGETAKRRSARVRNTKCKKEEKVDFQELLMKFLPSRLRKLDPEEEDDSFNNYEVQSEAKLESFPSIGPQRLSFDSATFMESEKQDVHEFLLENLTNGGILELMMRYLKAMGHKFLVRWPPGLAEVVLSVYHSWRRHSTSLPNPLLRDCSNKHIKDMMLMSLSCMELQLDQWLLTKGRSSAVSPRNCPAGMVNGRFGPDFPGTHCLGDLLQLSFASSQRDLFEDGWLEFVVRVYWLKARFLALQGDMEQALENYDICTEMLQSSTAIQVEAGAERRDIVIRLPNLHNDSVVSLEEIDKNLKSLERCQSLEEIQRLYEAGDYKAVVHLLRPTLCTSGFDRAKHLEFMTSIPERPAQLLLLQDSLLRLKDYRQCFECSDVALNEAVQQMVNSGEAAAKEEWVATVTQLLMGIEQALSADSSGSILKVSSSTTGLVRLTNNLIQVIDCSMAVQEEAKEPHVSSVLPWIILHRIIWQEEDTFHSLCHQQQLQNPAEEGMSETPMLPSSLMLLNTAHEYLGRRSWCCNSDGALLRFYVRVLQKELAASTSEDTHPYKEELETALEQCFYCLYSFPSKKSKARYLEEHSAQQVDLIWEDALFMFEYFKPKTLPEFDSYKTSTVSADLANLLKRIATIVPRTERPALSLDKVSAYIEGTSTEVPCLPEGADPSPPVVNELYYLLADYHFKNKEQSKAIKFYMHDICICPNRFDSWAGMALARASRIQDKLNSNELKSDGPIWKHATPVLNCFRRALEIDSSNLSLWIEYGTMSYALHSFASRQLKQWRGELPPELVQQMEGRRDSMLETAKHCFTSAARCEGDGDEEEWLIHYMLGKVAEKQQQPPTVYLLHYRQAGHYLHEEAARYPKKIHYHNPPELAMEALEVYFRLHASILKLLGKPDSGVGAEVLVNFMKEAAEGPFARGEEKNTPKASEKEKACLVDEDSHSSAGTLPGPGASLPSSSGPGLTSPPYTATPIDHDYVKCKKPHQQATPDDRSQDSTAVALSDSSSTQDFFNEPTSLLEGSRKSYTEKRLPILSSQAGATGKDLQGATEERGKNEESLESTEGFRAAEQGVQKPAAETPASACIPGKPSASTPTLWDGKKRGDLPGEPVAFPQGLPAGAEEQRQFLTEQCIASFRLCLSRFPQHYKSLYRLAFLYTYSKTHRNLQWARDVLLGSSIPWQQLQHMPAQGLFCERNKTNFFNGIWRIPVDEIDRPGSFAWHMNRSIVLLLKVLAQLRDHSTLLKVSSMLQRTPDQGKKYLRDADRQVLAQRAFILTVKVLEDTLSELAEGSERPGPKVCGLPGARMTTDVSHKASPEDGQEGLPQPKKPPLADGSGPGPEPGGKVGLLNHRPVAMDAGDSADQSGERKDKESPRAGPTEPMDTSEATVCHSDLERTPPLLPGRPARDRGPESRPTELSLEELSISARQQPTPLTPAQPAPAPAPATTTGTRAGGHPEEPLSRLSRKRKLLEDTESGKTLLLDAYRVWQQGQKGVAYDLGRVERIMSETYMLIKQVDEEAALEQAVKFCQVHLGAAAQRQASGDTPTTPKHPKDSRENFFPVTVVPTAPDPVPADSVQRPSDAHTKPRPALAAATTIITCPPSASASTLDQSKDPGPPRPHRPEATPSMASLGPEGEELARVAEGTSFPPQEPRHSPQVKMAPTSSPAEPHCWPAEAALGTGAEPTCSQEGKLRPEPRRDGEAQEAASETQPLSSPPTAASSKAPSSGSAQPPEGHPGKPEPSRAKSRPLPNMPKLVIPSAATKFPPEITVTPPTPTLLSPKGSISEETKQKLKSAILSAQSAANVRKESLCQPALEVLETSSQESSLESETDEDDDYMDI
# UniProt Q8N350, 178-202: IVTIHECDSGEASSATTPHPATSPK
# UniProt O60566, 733-752: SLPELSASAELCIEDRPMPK
# UniProt A6QL63: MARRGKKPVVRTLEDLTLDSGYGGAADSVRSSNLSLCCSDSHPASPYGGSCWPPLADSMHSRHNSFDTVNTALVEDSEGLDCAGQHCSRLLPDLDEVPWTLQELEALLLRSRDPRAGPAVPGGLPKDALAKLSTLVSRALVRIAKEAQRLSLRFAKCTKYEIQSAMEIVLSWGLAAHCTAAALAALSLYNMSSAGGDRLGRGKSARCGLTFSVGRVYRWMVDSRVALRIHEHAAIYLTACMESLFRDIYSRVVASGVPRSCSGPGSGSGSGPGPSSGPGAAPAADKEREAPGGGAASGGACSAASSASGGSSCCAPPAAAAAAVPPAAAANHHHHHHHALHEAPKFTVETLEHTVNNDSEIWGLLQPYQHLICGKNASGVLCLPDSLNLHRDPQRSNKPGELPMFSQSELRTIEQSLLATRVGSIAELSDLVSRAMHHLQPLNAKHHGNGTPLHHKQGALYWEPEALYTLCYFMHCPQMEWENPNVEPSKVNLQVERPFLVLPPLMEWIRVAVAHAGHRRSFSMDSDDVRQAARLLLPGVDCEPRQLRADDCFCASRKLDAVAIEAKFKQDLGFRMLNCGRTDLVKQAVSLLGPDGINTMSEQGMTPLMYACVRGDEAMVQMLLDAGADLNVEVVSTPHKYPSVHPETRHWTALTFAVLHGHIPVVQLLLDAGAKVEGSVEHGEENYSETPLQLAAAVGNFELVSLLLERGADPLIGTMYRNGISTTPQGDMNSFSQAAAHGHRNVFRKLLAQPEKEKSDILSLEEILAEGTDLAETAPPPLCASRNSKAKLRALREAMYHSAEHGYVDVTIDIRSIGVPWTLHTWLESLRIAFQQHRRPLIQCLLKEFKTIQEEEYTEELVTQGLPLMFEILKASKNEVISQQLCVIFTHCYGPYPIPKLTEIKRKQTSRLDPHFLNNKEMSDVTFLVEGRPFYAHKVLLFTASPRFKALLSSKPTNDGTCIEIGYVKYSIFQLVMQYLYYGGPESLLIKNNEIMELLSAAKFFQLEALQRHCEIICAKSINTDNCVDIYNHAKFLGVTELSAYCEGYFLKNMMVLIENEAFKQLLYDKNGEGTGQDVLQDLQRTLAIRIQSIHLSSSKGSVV
# UniProt Q9BX63: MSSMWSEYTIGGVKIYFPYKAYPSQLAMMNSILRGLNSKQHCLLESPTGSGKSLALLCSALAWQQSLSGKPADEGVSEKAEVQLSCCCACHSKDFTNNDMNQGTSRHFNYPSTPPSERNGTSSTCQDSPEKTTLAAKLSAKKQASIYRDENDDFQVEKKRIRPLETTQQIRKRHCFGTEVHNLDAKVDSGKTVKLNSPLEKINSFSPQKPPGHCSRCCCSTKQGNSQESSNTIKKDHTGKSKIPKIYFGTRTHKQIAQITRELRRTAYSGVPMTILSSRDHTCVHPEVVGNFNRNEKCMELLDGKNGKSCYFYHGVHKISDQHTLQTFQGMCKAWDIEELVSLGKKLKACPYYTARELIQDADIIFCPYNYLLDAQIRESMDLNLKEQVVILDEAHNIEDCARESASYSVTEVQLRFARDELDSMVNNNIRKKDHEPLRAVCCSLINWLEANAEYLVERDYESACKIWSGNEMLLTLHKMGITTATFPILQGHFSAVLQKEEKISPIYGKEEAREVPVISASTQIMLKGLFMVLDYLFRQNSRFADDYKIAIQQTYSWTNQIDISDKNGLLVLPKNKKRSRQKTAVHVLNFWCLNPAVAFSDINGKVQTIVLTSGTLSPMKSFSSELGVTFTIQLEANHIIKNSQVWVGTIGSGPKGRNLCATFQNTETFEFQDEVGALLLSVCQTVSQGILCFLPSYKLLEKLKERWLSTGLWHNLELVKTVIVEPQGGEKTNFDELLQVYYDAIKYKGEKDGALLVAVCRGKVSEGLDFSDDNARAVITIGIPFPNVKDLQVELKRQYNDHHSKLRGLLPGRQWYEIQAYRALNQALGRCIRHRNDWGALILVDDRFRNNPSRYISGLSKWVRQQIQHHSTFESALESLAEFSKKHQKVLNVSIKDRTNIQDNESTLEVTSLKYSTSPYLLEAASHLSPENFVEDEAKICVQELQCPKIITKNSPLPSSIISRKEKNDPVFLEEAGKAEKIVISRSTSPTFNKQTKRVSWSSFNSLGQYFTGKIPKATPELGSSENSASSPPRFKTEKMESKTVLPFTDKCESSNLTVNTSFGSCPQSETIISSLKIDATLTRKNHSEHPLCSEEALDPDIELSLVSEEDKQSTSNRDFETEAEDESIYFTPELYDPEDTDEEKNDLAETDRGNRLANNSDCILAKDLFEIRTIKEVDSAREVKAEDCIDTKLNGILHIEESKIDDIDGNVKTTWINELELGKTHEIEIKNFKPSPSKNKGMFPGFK
# UniProt Q9HAS0: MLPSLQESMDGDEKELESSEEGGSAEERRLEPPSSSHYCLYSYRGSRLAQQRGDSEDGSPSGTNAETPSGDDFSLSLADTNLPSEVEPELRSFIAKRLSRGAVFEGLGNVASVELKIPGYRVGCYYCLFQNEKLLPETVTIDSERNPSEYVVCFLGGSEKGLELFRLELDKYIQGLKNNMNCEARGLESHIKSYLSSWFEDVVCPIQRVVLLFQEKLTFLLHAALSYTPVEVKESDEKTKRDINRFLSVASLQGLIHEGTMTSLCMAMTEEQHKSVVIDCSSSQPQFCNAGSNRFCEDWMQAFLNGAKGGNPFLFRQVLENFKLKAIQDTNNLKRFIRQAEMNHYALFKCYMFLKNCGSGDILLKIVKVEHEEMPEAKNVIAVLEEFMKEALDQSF
# Some of the results follow. The data scatter; read single values as rough.
# Key:
# [1] = compound: ClCC(=O)N[C@@H]1CCCc2ccccc12; experiment: log2 mean competition ratio of IA-DTB cysteine labelling (DMSO/compound) (log2 ratio); higher = stronger cysteine engagement by compound; settings: treatment time: 4 h, cell line lysate: HEK293T
# Protocol: (§1)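 IA-DTB competitive cysteine chemoproteomics in HEK293T RIPA lysate. Lysates were treated with compound 29 or 30 at 50 or 200 µM for 4 h, then IA-DTB (500 µM, 1 h), trypsin-digested, NeutrAvidin-enriched and analysed by diaPASEF. Competition ratio = intensity DMSO / intensity compound (n=4 treated, n=64 DMSO); binding: mean log2 CR ≥ 1 and p ≤ 0.05 plus QC filters. Target is the cysteine site.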
# [2] = compound: ClCC(=O)N[C@H]1CCCc2ccccc12; experiment: as above; settings: treatment time: 4 h, cell line lysate: HEK293T
# Protocol: as §1
Target,log2 mean competition ratio ([1]; 50 µM),log2 mean competition ratio ([1]; 200 µM),log2 mean competition ratio ([2]; 50 µM),log2 mean competition ratio ([2]; 200 µM)
BNIP3 C129 (UniProt Q12983),-0.156,0.0571,-0.217,-0.1
BRAT1 C207 (UniProt Q6PJG6),-0.177,0.0735,-0.128,-0.088
BOD1L1 C686 (UniProt Q8NFC6),-0.132,-0.152,-0.142,-0.0354
CAMKK2 C34 (UniProt Q96RR4),0.0657,0.428,-0.201,0.143
CBS C15 (UniProt P35520),0.052,-0.0212,-0.187,-0.11
CAMSAP1 C1386 (UniProt Q5T5Y3),0.294,0.399,0.104,0.318
CASP8AP2 C592 (UniProt Q9UKL3),0.0573,-0.199,-0.361,-0.213
CABIN1 C571 (UniProt Q9Y6J0),0.114,0.258,0.16,-0.0264
CBARP C184 (UniProt Q8N350),-0.0731,0.0949,-0.0623,-0.118
BUB1B C744 (UniProt O60566),0.233,0.129,0.19,0.00712
BTBD11 C1027 (UniProt A6QL63),-0.272,-0.00841,-0.532,-0.301
CBWD1 C310 (UniProt Q9BRT8),-0.124,-0.0156,-0.128,-0.125
CAD C868,0.124,0.237,-0.363,-0.0704
BRD4 C674 (UniProt O60885),0.435,0.175,0.479,0.135
BRIP1 C401 (UniProt Q9BX63),-0.474,-0.0537,-0.467,-0.201
C17orf75 C182 (UniProt Q9HAS0),0.0162,0.0148,-0.0854,-0.0845
